This test deals with MyRF_(S587A) (mouse MyRF residues 351-717, noncleavable mutant) (mouse) (UniProt Q3UR85). The experiment in a line: crystal structure; sitting drop vapor diffusion, 16 °C, 8% PEG6000, 0.1 M cacodylate pH 5.5 or 10% PEG6000, 1 M LiCl, 0.1 M MES pH 6.5; space group P321, 2.4 Å; trimer generated by crystal symmetry; protein split into DBD and stalk-ICA fragments during crystallization; both purified.

The chains behind the UniProt entries cited, without tags or fusion partners. Where a name states a change or a piece, a line headed by the entry shows the natural chain unless it says otherwise. A line that says so, or that is headed by a name, gives the form on record, which may keep a tag or linker. Residues count along the entry.
MyRF_(S587A) (mouse MyRF residues 351-717, noncleavable mutant) (Q3UR85-3, form named): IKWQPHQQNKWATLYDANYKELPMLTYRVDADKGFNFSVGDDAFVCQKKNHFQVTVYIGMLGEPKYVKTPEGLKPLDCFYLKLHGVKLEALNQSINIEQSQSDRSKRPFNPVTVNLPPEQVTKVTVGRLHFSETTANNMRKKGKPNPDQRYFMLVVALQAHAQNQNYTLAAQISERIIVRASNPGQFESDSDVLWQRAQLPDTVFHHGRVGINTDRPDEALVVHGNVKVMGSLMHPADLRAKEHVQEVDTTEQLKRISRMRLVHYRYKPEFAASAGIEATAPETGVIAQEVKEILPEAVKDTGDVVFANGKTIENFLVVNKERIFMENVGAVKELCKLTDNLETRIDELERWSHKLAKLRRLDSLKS

No constants are given. Whether binding was seen depends on the method and setting. Some binding calls cover weakened binding; strength is not graded here.

As to “MyRF_(S587A) (mouse MyRF residues 351-717, noncleavable mutant) (from UniProt Q3UR85-3 351-717) (domain or fragment)”, the binding entry is “binds”.
